According to patent publication US20190330374A1:
No constants are given. Whether binding was seen depends on the method and setting. Some binding calls cover weakened binding; strength is not graded here. Where a sequence is shown, tags or fusion partners need not be part of it.

Target: T1, OX40-Fc (R&D) (human) (UniProt P43489)
T1 sequence: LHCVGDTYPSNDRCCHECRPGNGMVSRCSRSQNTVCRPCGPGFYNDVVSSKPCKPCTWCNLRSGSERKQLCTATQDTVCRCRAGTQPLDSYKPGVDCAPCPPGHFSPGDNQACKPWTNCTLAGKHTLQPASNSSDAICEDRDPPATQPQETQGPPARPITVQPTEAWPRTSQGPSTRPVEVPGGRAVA
Test: ELISA on coated OX40-Fc

- binding: binds
B1: Anti-OX40 #1-IgG (antibody, V domains shown)
VH: QVQLQESGPGLVKPSQTLSLTCAVYGGSFSSGYWNWIRKHPGKGLEYIGYISYNGITYHNPSLKSRITINRDTSKNQYSLQLNSVTPEDTAVYYCARYKYDYDGGHAMDYWGQGTLVTVSS
VL: DIQMTQSPSSLSASVGDRVTITCRASQDISNYLNWYQQKPGKAPKLLIYYTSKLHSGVPSRFSGSGSGTDYTLTISSLQPEDFATYYCQQGSALPWTFGQGTKVEIK
